Measured values: patent publication EP4617284A1 (Shanghai Novamab Biopharmaceuticals Co., Ltd., dated 2025)
Results are given in words; binding and its absence hold for the method and conditions named. Some binding calls cover weakened binding; strength is not graded here. Values belong to the binder of their own block, whether it stands above or below them.

By UniProt entry, the sequences of proteins in these tests, tags left out. Where a name states a change or a piece, a line headed by the entry shows the natural chain unless it says otherwise. Chains listed by the source or under a name are the forms on record and can include a tag or linker.
cynomolgus monkey IL-13 (Q0PW92, form named): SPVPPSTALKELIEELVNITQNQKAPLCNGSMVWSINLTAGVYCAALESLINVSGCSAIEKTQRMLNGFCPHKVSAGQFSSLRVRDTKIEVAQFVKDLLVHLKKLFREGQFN

Legend:
[1] = biological target: cynomolgus monkey IL-13 (cynomolgus monkey) (UniProt Q0PW92); assay: ELISA, IL-13 coated on the plate
[2] = biological target: cynomolgus monkey IL-13 (cynomolgus monkey) (UniProt Q0PW92); assay: ELISA

- binding [1]: binds
- binding [2]: binds
B1: MY9217 (bispecific antibody)
chain: EVQLLESGGGLVQPGGSLRLSCAASGFTFSDYTMTWVRQAPGKGLEWVSTVNPDGDSTFYRDSVKGRFTISRDNAKNTLYLQLSSLKTEDTAMYYCTKASLITWPQSPRGQGTLVTVSSGGGGSGGGGSGGGGSGGGGSEVQLQESGGGLVEPGGSLRLSCVASGFTFQHYAMSWVRQAPGKGLEWVSSISMVGGGTSYADSVKGRFTMSRDNAKNTLYLQLNSLKSEDTAMYYCVRGWHPDVPRPLGQGTLVTVSSGGGGSGGGGSGGGGSGGGGSEVQLLESGGGLVQPGESLRLSCEVSGHTHTNYCMGWFRQAPGKGLEGVAAIDTDGSTTYADSVKGRFTISKDNAKNTLYLQMNSLKPEDTAMYYCMAEDFRDEYAPEPRLSSGGYCSIGYGMDYWGKGTLVTVSSA
notes: Trivalent long-acting nanobody: two anti-IL-13 VHH and one anti-HSA VHH in one chain; also called MY9286-GS20-HSA HuNb3-11-GS20-MY9293

- binding [1]: binds
- binding [2]: binds
B2: MY9219 (bispecific antibody)
chain: EVQLQESGGGLVEPGGSLRLSCVASGFTFQHYAMSWVRQAPGKGLEWVSSISMVGGGTSYADSVKGRFTMSRDNAKNTLYLQLNSLKSEDTAMYYCVRGWHPDVPRPLGQGTLVTVSSGGGGSGGGGSGGGGSGGGGSEVQLLESGGGLVQPGGSLRLSCAASGFTFSDYTMTWVRQAPGKGLEWVSTVNPDGDSTFYRDSVKGRFTISRDNAKNTLYLQLSSLKTEDTAMYYCTKASLITWPQSPRGQGTLVTVSSGGGGSGGGGSGGGGSGGGGSEVQLLESGGGLVQPGESLRLSCEVSGHTHTNYCMGWFRQAPGKGLEGVAAIDTDGSTTYADSVKGRFTISKDNAKNTLYLQMNSLKPEDTAMYYCMAEDFRDEYAPEPRLSSGGYCSIGYGMDYWGKGTLVTVSSA
notes: Trivalent long-acting nanobody: two anti-IL-13 VHH and one anti-HSA VHH in one chain; also called HSA HuNb3-11-MY9286-GS20-MY9293-GS20
